# Experimental data published in article PMC7870818, “SPRTN protease-cleaved MRE11 decreases DNA repair and radiosensitises cancer cells”.
# Positions count from the first letter of the chain named. These are yes or no findings as the source states them, for the method shown. In cells and extracts the contact can be indirect. Some binding calls cover weakened binding; strength is not graded here. Sequences can lack the tags named with a protein.
# What was measured:
# flag-SPRTN WT = target: T1, flag-SPRTN WT (UniProt Q9H040); assay: co-IP; 293T cells transfected with flag-SPRTN WT or E112A; whole cell lysate in 50 mM Tris-HCl pH 7.4, 150 mM NaCl, 0.1% NP-40, 1 mM EDTA, 5% glycerol with 500 U/ml benzonase at 4 C; anti-flag M2 antibody, five washes, elution with 3xFlag peptide; blots for p97 and MRE11
# T1 sequence: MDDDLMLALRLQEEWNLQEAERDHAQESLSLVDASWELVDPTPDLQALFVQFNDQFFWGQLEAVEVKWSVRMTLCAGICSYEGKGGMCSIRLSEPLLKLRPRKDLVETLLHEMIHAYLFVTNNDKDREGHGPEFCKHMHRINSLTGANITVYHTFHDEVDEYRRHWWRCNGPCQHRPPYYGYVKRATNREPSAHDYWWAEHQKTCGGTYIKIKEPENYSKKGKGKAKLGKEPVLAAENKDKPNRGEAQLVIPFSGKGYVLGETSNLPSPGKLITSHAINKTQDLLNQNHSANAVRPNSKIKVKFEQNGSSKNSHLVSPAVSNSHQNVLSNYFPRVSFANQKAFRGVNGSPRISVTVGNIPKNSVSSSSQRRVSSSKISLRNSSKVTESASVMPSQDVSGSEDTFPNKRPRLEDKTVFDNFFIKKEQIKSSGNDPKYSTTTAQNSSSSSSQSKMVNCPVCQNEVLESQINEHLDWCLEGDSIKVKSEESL
# flag-SPRTN E112A = target: T2, flag-SPRTN E112A (UniProt Q9H040); assay: as above
# T2 sequence: T1 sequence with E112A
substance,measurement,setting,value
p97 (from UniProt P55072 1-806),binding,flag-SPRTN WT,binds
same,binding,flag-SPRTN E112A,binds
